ChEMBL document CHEMBL4316593 (Eur J Med Chem, 2019)
Further values from the same series stand in other lists.

Assays:
Assay type in all cases: cell-based
Conditions in all cases: U-87MG ATCC
[1] = Inhibition of RTK/PI3K/AKT/mTOR signaling in human U87 cells assessed as up regulation of ARHGAP29 gene expression at cytotoxic IC50 measured after 48 hrs relative to control
[2] = Inhibition of RTK/PI3K/AKT/mTOR signaling in human U87 cells assessed as up regulation of septin 10 gene expression at cytotoxic IC50 measured after 48 hrs relative to control
[3] = Inhibition of RTK/PI3K/AKT/mTOR signaling in human U87 cells assessed as down regulation of ZMYM5 gene expression at cytotoxic IC50 measured after 48 hrs relative to control
[4] = Inhibition of RTK/PI3K/AKT/mTOR signaling in human U87 cells assessed as down regulation of UHRF1BP1L gene expression at cytotoxic IC50 measured after 48 hrs relative to control
[5] = Inhibition of RTK/PI3K/AKT/mTOR signaling in human U87 cells assessed as down regulation of SPTAN1 gene expression at cytotoxic IC50 measured after 48 hrs relative to control
[6] = Inhibition of RTK/PI3K/AKT/mTOR signaling in human U87 cells assessed as down regulation of GPATCH8 gene expression at cytotoxic IC50 measured after 48 hrs relative to control
[7] = Inhibition of RTK/PI3K/AKT/mTOR signaling in human U87 cells assessed as down regulation of CATSPERG gene expression at cytotoxic IC50 measured after 48 hrs relative to control
[8] = Inhibition of RTK/PI3K/AKT/mTOR signaling in human U87 cells assessed as up regulation of transducin like enhancer of split 2 gene expression at cytotoxic IC50 measured after 48 hrs relative to control
[9] = Inhibition of RTK/PI3K/AKT/mTOR signaling in human U87 cells assessed as down regulation of MCM10 gene expression at cytotoxic IC50 measured after 48 hrs relative to control
[10] = Inhibition of RTK/PI3K/AKT/mTOR signaling in human U87 cells assessed as down regulation of MAD2L2 gene expression at cytotoxic IC50 measured after 48 hrs relative to control
[11] = Inhibition of RTK/PI3K/AKT/mTOR signaling in human U87 cells assessed as down regulation of NCOA4 gene expression at cytotoxic IC50 measured after 48 hrs relative to control
[12] = Inhibition of RTK/PI3K/AKT/mTOR signaling in human U87 cells assessed as up regulation of protein phosphatase, Mg2+/Mn2+ dependent 1M gene expression at cytotoxic IC50 measured after 48 hrs relative to control
[13] = Inhibition of RTK/PI3K/AKT/mTOR signaling in human U87 cells assessed as up regulation of sprouty RTK signaling antagonist 1 gene expression at cytotoxic IC50 measured after 48 hrs relative to control
[14] = Inhibition of RTK/PI3K/AKT/mTOR signaling in human U87 cells assessed as up regulation of PDX1 C-terminal inhibiting factor 1 gene expression at cytotoxic IC50 measured after 48 hrs relative to control
[15] = Inhibition of RTK/PI3K/AKT/mTOR signaling in human U87 cells assessed as down regulation of PDE5A gene expression at cytotoxic IC50 measured after 48 hrs relative to control
[16] = Inhibition of RTK/PI3K/AKT/mTOR signaling in human U87 cells assessed as up regulation of AHDC1 gene expression at cytotoxic IC50 measured after 48 hrs relative to control
[17] = Inhibition of RTK/PI3K/AKT/mTOR signaling in human U87 cells assessed as down regulation of UBA5 gene expression at cytotoxic IC50 measured after 48 hrs relative to control
[18] = Inhibition of RTK/PI3K/AKT/mTOR signaling in human U87 cells assessed as down regulation of AHRR gene expression at cytotoxic IC50 measured after 48 hrs relative to control
[19] = Inhibition of RTK/PI3K/AKT/mTOR signaling in human U87 cells assessed as down regulation of ZNF680 gene expression at cytotoxic IC50 measured after 48 hrs relative to control
[20] = Inhibition of RTK/PI3K/AKT/mTOR signaling in human U87 cells assessed as up regulation of brain expressed X-linked 2 gene expression at cytotoxic IC50 measured after 48 hrs relative to control
[21] = Inhibition of RTK/PI3K/AKT/mTOR signaling in human U87 cells assessed as down regulation of ZFYVE9 gene expression at cytotoxic IC50 measured after 48 hrs relative to control
[22] = Inhibition of RTK/PI3K/AKT/mTOR signaling in human U87 cells assessed as down regulation of CAMSAP1 gene expression at cytotoxic IC50 measured after 48 hrs relative to control
[23] = Inhibition of RTK/PI3K/AKT/mTOR signaling in human U87 cells assessed as down regulation of MED29 gene expression at cytotoxic IC50 measured after 48 hrs relative to control
[24] = Inhibition of RTK/PI3K/AKT/mTOR signaling in human U87 cells assessed as down regulation of C17orf53 gene expression at cytotoxic IC50 measured after 48 hrs relative to control
[25] = Inhibition of RTK/PI3K/AKT/mTOR signaling in human U87 cells assessed as up regulation of SMPD3 gene expression at cytotoxic IC50 measured after 48 hrs relative to control
[26] = Inhibition of RTK/PI3K/AKT/mTOR signaling in human U87 cells assessed as down regulation of ALYREF gene expression at cytotoxic IC50 measured after 48 hrs relative to control
[27] = Inhibition of RTK/PI3K/AKT/mTOR signaling in human U87 cells assessed as up regulation of TMEM92 gene expression at cytotoxic IC50 measured after 48 hrs relative to control
[28] = Inhibition of RTK/PI3K/AKT/mTOR signaling in human U87 cells assessed as up regulation of TMED7 gene expression at cytotoxic IC50 measured after 48 hrs relative to control
[29] = Inhibition of RTK/PI3K/AKT/mTOR signaling in human U87 cells assessed as down regulation of LRRC8A gene expression at cytotoxic IC50 measured after 48 hrs relative to control
[30] = Inhibition of RTK/PI3K/AKT/mTOR signaling in human U87 cells assessed as up regulation of ZNF469 gene expression at cytotoxic IC50 measured after 48 hrs relative to control
[31] = Inhibition of RTK/PI3K/AKT/mTOR signaling in human U87 cells assessed as up regulation of protein kinase cAMP-activated catalytic subunit beta gene expression at cytotoxic IC50 measured after 48 hrs relative to control
[32] = Inhibition of RTK/PI3K/AKT/mTOR signaling in human U87 cells assessed as up regulation of APOL6 gene expression at cytotoxic IC50 measured after 48 hrs relative to control

In the case of `CC(=O)C(=NNc1ccccc1C#N)C(C)=O`, the log2FC [1] is reported as 1.62, the log2FC [2] is reported as 0.938 and the log2FC [3] is reported as -0.867. It also gave a log2FC [4] of -0.736, a log2FC [5] of -0.95 and a log2FC [6] of -0.565. The log2FC [7] was -1.65, the log2FC [8] was 0.686 and the log2FC [9] was -1.84. For the same molecule, the log2FC [10] was -0.632, the log2FC [11] was -0.841 and the log2FC [12] was 1.12. The log2FC [13] was 1.28, the log2FC [14] was 1.05 and the log2FC [15] was -1.46. It also gave a log2FC [16] of 0.616, a log2FC [17] of -0.713 and a log2FC [18] of -1.16. The log2FC [19] was -1.35, the log2FC [20] was 1 and the log2FC [21] was -0.639. It also gave a log2FC [22] of -1.02, a log2FC [23] of -0.527 and a log2FC [24] of -1.63. For the same molecule, the log2FC [25] was 3.09, the log2FC [26] was -0.6 and the log2FC [27] was 2.24. For the same molecule, the log2FC [28] was 0.545, the log2FC [29] was -0.689 and the log2FC [30] was 2.87. For the same molecule, the log2FC [31] was 0.897 and the log2FC [32] was 2.83.
